Binding data for two molecules are collected here from PMC4590430.

Experiment [1] addresses T1, S. cerevisiae Apc5 (S. cerevisiae) (UniProt Q08683).
T1 sequence: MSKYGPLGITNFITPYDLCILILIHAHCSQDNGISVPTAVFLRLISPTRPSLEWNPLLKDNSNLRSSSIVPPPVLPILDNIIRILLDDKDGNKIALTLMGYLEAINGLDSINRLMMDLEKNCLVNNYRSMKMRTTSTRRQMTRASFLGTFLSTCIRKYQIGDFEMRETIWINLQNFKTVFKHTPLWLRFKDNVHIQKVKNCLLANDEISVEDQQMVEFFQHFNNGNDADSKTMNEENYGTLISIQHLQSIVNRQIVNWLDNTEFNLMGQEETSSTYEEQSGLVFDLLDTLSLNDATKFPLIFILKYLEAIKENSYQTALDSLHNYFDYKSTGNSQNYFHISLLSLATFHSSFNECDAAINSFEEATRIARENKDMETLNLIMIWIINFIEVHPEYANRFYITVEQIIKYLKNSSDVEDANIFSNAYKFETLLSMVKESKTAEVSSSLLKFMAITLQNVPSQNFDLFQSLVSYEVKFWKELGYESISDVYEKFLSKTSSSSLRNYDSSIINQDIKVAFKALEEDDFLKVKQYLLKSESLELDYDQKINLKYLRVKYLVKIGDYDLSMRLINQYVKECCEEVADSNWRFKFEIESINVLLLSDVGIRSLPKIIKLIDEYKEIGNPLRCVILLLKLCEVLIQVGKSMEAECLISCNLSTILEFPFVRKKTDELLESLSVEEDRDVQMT
Kind of experiment: co-expression and co-purification; Apc4 expressed together with Apc5 and Apc15 (human, X. laevis, S. cerevisiae, S. pombe); an Apc4–Apc5 complex purified.

Another experiment deals with T2, S. pombe Apc5 (S. pombe) (UniProt Q9P4W7).
T2 sequence: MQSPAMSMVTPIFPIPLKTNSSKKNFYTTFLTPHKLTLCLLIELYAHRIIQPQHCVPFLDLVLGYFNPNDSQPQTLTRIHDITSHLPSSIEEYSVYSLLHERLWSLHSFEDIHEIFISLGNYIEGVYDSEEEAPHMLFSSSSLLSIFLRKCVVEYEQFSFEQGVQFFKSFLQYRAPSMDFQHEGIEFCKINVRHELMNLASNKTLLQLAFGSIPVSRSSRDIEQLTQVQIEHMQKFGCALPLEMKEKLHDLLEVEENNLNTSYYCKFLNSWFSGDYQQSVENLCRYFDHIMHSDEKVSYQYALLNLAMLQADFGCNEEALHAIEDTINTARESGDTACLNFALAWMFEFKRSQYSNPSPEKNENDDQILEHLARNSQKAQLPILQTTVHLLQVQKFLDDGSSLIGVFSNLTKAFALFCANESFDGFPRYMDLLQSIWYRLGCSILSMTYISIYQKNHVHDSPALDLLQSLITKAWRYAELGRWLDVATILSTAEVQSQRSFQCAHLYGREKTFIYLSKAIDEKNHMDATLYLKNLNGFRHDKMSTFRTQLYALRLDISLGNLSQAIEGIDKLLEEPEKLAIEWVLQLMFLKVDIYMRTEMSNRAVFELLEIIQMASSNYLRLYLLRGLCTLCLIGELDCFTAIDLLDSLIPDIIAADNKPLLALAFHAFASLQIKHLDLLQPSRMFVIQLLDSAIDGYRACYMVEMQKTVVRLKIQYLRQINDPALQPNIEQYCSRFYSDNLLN
Described as above.

No constants are given. Whether binding was seen depends on the method and setting. Some entries that bind do so weakly or less than the wild type.

B1: S. cerevisiae Apc4 (protein, UniProt Q04601 1-652)
chain: MSSPINDYFIDYNPLFPIFATRIAKGLAIYRVSDHARLAVIPIRNINLVANYDWDTTTGKFLSIFFKDGTIRIHDIFKDGRLVSFLRIPSTKISKGIWDRIPLRYEPNNRDFACNIIDDLPKLIRFVKDSKRINIVPYTQPNSLWRGPDEDDLDSNEKLDVHVVFNEGNDKITVFFNGDYAVFLSVDNIENENSLKSIIKVQDGFYQCFYEDGTVQTLNLGPLLQSKSSVNLLNYIMVIKELIGYMLTHLEFINRELATPYLDFVKRLCDEAYGYGKLKSELEALFLLGEISCDLEDWLCNSVGEKNFKRWKYLGCEAYQKTVQILTLIFVPACERIIIYVEKLRAILQAFSIQNKLSYTSDLTAVEVLLKSSQKLLTMTLNSIIGLGRDETLFEKFFIWFNDRLHEALDEDYKLKFQFEDDLYFGYDLLSYFDRILSKKGTEPSSIIDVKLYRDLINSMSDMEKDIAQSNVNSHIQQHILVDLKTDVFAQKYPSSQINLLDAIKLPKHNYIVYLIQVTKHNSAQEPFSEENKKKLYIGTLKDENLGIISKESSVKIPALFKSYRLSSTRFVPNRVHSLLRDIGLSDSNYHSSHVTDYRGENYENEEDDGTIAIPAYIRENRENDDFIACTAKVSVDGRSASLVFPKEKQNV
With B1, the binding result in experiment [1] is “binds”.

B2: S. pombe Apc4 (protein, UniProt O42839 1-719)
chain: MVSKSFKYPKKHKFEWINETNRVERVGSGLKRVILCPSMELIAILTCSNHLICCRSNSQRIWDVDFHDLEATELCWNHDGNLIVVGFKNGELKIIDSSTGHLVEQRPASRDLAVLMITWAMQETIVNEKRNDFLFDATAYMPLLGTLPSSAKEERIFSSKAIAQFFEPRKREGENNKKVELLSILDERGIRYINMFSSYKIGESDSLKSALNLGVPISHSITNDLAYHVLICKGGTNISLKTLYMPLLKNDLGSIVDIATMSTRMQHLVRYLEEVLNAMYEEFDNVFKSEASFIKTFDALVSKYSDTTFFSLQLELYQFIMNGIPSDLLKEWINERVGDRVLKNWERAMVNSYTSLIIFCQEFVIPACERLTVLLSSARGKSIWGHMKGNTLLDAKLVEDCLATLGYLQNNVFSFLNCLFEEKKYMKHFISWLNYAIVEFNTSEPSSIPPQEIIEHINETVIYIRHSLFRSKLTSYFMGTKPLQLRDPDYYSLKDFANQDDSNSVDDFVSFKTLKESLRDSFNVIFSYPSLTCQKQWLKTGDLVLFEGTDWNVSSLIPKSCNEKNQLFSLFFRKDTPNIFLIISQLMENTMLPVSGCHFGLDYAELLGSSLLDFQPATVLDMKLLNGSSILILGKLKEKCFLCEICLADVPLTFFEHQQKNSYLDAISHLPFIPLNSCLWLHEFEKDFLPSTLEYALSENSDYGVLISRESSRYRLFSF
Consider B2, for which the binding entry with S. pombe Apc5 (S. pombe) is on record as “binds”.
